The supplement of paper PMC12067093, “Discovery and optimisation of a covalent ligand for TRIM25 and its application to targeted protein ubiquitination” (Chemical Science, 2025)
The other results are listed elsewhere or left out.

By UniProt entry, the sequences of proteins in these tests, tags left out. Where a name states a change or a piece, a line headed by the entry shows the natural chain unless it says otherwise.
UniProt P40121: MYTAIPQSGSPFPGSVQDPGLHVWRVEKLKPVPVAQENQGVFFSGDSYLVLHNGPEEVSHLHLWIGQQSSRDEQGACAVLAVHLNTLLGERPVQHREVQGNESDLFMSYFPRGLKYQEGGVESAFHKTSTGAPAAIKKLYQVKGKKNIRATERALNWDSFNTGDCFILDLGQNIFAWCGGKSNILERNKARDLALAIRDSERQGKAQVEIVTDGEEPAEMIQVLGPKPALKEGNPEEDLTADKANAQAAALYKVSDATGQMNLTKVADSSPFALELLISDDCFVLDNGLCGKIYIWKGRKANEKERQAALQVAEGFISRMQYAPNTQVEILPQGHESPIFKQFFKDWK
UniProt P07384: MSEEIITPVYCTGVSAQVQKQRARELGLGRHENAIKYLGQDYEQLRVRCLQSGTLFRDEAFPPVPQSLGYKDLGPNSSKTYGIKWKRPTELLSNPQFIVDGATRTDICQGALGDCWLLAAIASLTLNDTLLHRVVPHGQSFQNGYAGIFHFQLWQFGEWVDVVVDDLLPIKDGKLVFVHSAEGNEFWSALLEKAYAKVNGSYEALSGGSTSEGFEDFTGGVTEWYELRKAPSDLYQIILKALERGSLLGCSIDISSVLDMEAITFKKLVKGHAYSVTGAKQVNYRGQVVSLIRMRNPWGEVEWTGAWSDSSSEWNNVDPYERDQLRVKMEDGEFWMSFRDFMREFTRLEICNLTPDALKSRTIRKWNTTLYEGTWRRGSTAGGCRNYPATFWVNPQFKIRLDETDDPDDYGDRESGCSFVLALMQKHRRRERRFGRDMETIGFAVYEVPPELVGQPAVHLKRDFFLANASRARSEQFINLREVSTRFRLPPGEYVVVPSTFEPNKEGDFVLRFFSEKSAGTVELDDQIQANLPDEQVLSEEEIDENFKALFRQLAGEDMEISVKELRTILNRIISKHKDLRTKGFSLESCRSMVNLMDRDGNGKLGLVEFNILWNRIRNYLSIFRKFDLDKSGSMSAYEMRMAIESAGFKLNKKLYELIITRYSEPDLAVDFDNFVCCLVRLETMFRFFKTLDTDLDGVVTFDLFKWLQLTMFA
UniProt Q75N03: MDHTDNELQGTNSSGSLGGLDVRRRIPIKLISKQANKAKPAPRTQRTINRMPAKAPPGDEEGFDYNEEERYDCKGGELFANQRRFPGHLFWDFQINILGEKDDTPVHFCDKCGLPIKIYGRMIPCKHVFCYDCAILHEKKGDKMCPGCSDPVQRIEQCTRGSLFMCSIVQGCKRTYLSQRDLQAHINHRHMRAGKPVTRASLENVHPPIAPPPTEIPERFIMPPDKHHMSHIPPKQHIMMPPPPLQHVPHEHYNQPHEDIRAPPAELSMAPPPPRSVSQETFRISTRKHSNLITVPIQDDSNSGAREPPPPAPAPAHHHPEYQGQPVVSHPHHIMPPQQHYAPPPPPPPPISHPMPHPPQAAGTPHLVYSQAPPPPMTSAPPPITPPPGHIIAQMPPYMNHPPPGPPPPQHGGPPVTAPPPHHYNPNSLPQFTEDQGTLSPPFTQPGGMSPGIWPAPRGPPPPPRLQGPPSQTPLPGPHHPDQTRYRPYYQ
UniProt P55212: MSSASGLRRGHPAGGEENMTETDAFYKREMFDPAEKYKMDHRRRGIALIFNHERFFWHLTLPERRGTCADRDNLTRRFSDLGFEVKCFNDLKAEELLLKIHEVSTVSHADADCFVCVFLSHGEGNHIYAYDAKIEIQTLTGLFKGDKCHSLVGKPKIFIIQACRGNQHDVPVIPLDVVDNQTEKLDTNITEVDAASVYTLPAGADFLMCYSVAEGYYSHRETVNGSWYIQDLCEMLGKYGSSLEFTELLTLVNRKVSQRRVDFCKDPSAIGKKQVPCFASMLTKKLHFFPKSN
UniProt O75081: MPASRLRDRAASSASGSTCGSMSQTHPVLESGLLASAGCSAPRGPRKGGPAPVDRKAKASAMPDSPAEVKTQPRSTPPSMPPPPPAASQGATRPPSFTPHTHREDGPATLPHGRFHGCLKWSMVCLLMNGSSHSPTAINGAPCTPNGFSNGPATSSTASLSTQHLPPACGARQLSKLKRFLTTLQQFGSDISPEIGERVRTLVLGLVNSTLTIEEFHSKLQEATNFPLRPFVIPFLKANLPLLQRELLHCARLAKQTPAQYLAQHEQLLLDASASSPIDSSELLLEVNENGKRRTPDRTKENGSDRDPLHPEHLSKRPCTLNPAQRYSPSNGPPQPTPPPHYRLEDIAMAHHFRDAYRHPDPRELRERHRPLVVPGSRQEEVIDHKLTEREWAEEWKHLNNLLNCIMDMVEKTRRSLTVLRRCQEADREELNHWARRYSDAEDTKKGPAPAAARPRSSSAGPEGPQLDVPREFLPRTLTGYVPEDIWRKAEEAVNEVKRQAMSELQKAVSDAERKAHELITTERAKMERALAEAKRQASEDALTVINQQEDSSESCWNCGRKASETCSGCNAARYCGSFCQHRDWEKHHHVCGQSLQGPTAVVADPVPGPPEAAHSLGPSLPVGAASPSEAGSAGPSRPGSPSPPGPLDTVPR
UniProt O43439: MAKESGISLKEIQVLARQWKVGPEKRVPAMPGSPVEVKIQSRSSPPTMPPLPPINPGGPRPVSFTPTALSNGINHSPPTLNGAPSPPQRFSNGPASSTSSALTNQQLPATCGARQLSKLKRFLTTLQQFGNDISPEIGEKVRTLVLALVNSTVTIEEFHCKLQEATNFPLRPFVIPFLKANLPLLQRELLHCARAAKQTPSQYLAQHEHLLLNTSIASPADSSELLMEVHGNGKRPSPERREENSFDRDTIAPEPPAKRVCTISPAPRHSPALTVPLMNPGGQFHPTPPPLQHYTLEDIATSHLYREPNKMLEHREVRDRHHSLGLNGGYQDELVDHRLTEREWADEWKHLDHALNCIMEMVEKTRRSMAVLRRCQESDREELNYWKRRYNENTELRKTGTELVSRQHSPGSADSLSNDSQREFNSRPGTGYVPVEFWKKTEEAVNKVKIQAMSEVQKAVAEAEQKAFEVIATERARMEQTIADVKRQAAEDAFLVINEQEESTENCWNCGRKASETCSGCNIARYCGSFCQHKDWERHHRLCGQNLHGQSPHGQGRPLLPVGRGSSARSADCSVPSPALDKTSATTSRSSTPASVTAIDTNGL
UniProt P13501: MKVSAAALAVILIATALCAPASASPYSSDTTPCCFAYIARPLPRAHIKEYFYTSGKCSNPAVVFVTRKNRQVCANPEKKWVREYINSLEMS
UniProt O95273: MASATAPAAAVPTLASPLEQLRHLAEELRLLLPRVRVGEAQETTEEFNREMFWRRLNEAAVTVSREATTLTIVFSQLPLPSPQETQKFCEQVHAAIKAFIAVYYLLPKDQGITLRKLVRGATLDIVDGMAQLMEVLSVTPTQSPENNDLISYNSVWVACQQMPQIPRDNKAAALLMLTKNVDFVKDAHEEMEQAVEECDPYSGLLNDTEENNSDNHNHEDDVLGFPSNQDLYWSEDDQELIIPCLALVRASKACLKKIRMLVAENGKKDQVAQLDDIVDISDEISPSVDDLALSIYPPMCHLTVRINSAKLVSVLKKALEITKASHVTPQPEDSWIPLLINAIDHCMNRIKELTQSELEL
UniProt P04040: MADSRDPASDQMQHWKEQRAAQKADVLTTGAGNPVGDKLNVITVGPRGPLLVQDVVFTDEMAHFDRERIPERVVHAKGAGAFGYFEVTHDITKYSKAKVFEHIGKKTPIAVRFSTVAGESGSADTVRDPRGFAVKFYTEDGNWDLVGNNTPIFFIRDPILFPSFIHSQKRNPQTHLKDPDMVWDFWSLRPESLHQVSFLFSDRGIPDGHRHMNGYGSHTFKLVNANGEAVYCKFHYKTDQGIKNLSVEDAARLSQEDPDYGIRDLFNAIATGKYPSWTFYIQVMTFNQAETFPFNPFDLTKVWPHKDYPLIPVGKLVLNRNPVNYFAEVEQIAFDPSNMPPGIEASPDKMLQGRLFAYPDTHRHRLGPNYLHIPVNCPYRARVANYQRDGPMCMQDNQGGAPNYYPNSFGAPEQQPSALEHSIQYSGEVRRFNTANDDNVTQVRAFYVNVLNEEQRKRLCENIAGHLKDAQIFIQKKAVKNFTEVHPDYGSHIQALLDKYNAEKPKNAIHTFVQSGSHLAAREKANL
UniProt P78371: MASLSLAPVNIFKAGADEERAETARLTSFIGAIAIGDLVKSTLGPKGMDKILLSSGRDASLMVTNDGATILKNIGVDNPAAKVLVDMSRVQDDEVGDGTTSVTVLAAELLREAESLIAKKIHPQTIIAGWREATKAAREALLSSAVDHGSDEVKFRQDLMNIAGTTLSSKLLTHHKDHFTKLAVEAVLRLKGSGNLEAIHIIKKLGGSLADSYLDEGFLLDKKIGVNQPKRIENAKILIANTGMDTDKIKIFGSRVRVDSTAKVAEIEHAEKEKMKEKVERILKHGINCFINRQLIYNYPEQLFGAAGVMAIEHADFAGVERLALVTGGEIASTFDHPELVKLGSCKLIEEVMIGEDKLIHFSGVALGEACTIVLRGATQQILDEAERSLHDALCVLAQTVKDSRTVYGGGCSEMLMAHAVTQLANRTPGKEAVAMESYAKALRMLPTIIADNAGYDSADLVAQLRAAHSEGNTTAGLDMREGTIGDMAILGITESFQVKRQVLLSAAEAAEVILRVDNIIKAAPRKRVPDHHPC
UniProt P49368: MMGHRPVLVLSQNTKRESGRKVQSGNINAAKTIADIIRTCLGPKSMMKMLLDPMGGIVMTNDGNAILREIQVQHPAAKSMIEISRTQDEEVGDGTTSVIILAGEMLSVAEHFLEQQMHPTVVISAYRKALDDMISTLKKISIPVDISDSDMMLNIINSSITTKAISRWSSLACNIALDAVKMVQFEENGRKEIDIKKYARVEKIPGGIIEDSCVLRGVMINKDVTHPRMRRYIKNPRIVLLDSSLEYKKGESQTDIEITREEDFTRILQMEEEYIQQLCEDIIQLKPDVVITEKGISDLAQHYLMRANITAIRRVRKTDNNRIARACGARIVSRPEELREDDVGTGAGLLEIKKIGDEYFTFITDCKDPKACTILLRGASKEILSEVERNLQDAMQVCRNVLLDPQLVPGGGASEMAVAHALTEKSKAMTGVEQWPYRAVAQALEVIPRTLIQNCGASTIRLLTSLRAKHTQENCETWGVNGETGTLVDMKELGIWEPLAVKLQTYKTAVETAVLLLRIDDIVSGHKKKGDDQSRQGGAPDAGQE
UniProt P55211: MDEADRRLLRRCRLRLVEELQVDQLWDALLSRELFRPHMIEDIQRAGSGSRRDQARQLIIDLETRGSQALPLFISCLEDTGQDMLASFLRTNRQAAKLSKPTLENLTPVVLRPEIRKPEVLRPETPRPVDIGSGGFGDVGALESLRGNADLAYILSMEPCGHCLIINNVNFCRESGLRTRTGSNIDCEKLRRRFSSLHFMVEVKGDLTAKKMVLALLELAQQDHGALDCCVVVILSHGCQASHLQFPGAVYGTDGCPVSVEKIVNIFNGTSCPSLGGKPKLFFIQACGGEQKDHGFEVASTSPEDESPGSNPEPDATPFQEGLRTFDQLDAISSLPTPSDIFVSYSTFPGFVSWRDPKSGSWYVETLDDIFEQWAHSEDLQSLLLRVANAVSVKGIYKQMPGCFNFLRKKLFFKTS
UniProt O60583: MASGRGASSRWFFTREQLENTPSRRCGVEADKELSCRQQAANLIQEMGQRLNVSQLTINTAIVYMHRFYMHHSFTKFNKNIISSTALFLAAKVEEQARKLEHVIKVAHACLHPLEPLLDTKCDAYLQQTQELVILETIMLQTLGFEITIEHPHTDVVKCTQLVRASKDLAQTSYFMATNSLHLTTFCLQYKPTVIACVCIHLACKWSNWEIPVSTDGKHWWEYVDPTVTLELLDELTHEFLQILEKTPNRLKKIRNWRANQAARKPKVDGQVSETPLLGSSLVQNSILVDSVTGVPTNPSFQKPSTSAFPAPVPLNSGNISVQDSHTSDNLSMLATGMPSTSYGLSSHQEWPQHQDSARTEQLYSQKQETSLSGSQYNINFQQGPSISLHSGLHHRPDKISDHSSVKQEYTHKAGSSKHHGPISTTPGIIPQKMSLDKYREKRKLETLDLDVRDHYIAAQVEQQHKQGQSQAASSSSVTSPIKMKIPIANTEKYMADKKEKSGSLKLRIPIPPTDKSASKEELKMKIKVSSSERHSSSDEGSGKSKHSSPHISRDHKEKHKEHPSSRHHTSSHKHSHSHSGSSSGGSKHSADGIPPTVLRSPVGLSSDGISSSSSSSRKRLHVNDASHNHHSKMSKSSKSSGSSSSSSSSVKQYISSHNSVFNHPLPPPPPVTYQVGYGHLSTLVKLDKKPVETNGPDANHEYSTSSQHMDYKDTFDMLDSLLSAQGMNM
UniProt Q13951, whole entry, looked up: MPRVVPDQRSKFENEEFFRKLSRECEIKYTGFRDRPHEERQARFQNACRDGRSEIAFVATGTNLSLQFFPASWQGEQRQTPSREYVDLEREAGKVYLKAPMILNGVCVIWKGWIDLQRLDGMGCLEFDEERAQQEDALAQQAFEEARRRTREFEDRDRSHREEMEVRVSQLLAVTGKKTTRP

Compound: CC1Cc2ccccc2N1C(=O)C1CCCN(C1)C(=O)CCl (mixture of isomers) [TRIM25 ligand 11 (diastereomer mixture)]
Assay: probe-labelled cysteine peptide fold change vs DMSO (competition) (log2 fold change); higher = less target engagement (more negative = stronger competition)
Conditions: THP-1, incubation time: 4 h
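Also: competitive chemoproteomic profiling in live THP-1 cells with an iodoacetamide desthiobiotin (IA-DTB) probe, comparing probe-labelled peptide intensities in compound-treated cells against DMSO-treated controls.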

| Target | probe-labelled cysteine peptide fold change (10 µM) | probe-labelled cysteine peptide fold change (50 µM) |
| --- | --- | --- |
| CAPG_P40121_77_DEQGACAVLAVHLNTLLGER (UniProt P40121) | 0.103 | 0.000983 |
| CBX1_P83916_156_CPQVVISFYEER (UniProt P83916) | 0.0723 | -0.0323 |
| CASP8AP2_Q9UKL3_270_DLSTGCGDGEPR (UniProt Q9UKL3) | -0.112 | -0.23 |
| CAPN1_P07384_678_YSEPDLAVDFDNFVCCLVR (UniProt P07384) | 0.039 | -0.0699 |
| CBLL1_Q75N03_109_DDTPVHFCDK (UniProt Q75N03) | 0.277 | 0.375 |
| CCDC22_O60826_369_TLGVSFVQAESECR (UniProt O60826) | 0.0216 | 0.0744 |
| CASP6_P55212_277_KQVPCFASMLTK (UniProt P55212) | -0.0264 | -0.0725 |
| CBFA2T3_O75081_423_CQEADREELNHWAR (UniProt O75081) | 0.0527 | 0.0776 |
| CBFA2T2_O43439_357_HLDHALNCIMEMVEK (UniProt O43439) | -0.043 | -0.0541 |
| CASP8_Q14790_345_CPSLAGKPK (UniProt Q14790) | -0.0611 | -0.0798 |
| CASP10_Q92851_169_QGKIDEDNLTCLEDLCK (UniProt Q92851) | 0.00628 | -0.119 |
| CCL5_P13501_73_QVCANPEK (UniProt P13501) | -0.256 | -0.339 |
| CCAR2_Q8N163_515_RNAETPEATTQQETDTDLPEAPPPPLEPAVIARPGCVNLSLHGIVEDR (UniProt Q8N163) | 0.0498 | -0.0585 |
| CBLL1_Q75N03_133_HVFCYDCAILHEK (UniProt Q75N03) | -0.00229 | 0.0558 |
| CCNDBP1_O95273_89_FCEQVHAAIK (UniProt O95273) | 0.0786 | 0.28 |
| CAT_P04040_460_LCENIAGHLK (UniProt P04040) | -0.0735 | -0.0901 |
| CAPN2_P17655_405_LEEEDEDEEDGESGCTFLVGLIQK (UniProt P17655) | -0.0215 | -0.085 |
| CAPN1_P07384_351_LEICNLTPDALK (UniProt P07384) | 0.115 | -0.0444 |
| CARHSP1_Q9Y2V2_112_MCSIPPK (UniProt Q9Y2V2) | -0.0249 | 0.0376 |

Another view of some results above.
CAPN1_P07384_678_YSEPDLAVDFDNFVCCLVR (UniProt P07384)
  probe-labelled cysteine peptide fold change (10 µM) = 0.039
  probe-labelled cysteine peptide fold change (50 µM) = -0.0699
CASP6_P55212_277_KQVPCFASMLTK (UniProt P55212)
  probe-labelled cysteine peptide fold change (10 µM) = -0.0264
  probe-labelled cysteine peptide fold change (50 µM) = -0.0725

Going on with the list:

| Target | probe-labelled cysteine peptide fold change (10 µM) | probe-labelled cysteine peptide fold change (50 µM) |
| --- | --- | --- |
| CCT2_P78371_535_VPDHHPC (UniProt P78371) | 0.12 | -0.0854 |
| CBLL1_Q75N03_172_GSLFMCSIVQGCK (UniProt Q75N03) | 0.0434 | 0.0724 |
| CCT3_P49368_455_TLIQNCGASTIR (UniProt P49368) | -0.0416 | 0.0607 |
| CCT3_P49368_173_WSSLACNIALDAVK (UniProt P49368) | 0.0129 | 0.159 |
| CASP9_P55211_272_IVNIFNGTSCPSLGGKPK (UniProt P55211) | -0.238 | -0.121 |
| CCNT2_O60583_26_CGVEADK (UniProt O60583) | -0.0339 | -0.0758 |
| CCAR2_Q8N163_238_VHLTPYTVDSPICDFLELQR (UniProt Q8N163) | -0.139 | -0.437 |
| CASP4_P49662_217_SSDSTFLVLMSHGILEGICGTVHDEK (UniProt P49662) | 0.168 | 0.107 |
| CCAR2_Q8N163_644_PLSSGGEEEEKPRGEASEDLCEMALDPELLLLRDDGEEEFAGAK (UniProt Q8N163) | 0.365 | 0.0832 |
| CARS_P49589_182_LTGEEVNSCVEVLLEEAK (UniProt P49589) | -0.0351 | -0.207 |
| CARD9_Q9H257_402_ADELQLQVFQCEAQLLAVEGR (UniProt Q9H257) | -0.0288 | 0.0818 |
| CASP2_P42575_179_DGPVCLQVKPCTPEFYQTHFQLAYR (UniProt P42575) | 0.13 | -0.0808 |
| CBFB_Q13951_124_LDGMGCLEFDEER (UniProt Q13951) | 0.0547 | -0.0431 |
| CAST_P20810-2_228_ELLAKPIGPDDAIDALSSDFTCGSPTAAGK (UniProt P20810) | 0.172 | -0.23 |
| CAP1_Q01518_416_VQVMGKVPTISINKTDGCHAYLSK (UniProt Q01518) | -0.472 | -0.386 |
| CASP8_Q14790_287_NGTHLDAGALTTTFEELHFEIKPHDDCTVEQIYEILK (UniProt Q14790) | 0.00791 | 0.0884 |
| CCDC9_Q9Y3X0_233_CGLEHER (UniProt Q9Y3X0) | -0.0693 | -0.231 |
| CCT2_P78371_371_LIHFSGVALGEACTIVLR (UniProt P78371) | -0.0596 | -0.278 |
| CANX_P27824_360+366_CESAPGCGVWQRPVIDNPNYK (UniProt P27824) | -0.0154 | 0.0709 |
